This note sets out measurements from paper PMC10404246.

By UniProt entry, the sequences of proteins in these tests, tags left out.
UniProt P15924: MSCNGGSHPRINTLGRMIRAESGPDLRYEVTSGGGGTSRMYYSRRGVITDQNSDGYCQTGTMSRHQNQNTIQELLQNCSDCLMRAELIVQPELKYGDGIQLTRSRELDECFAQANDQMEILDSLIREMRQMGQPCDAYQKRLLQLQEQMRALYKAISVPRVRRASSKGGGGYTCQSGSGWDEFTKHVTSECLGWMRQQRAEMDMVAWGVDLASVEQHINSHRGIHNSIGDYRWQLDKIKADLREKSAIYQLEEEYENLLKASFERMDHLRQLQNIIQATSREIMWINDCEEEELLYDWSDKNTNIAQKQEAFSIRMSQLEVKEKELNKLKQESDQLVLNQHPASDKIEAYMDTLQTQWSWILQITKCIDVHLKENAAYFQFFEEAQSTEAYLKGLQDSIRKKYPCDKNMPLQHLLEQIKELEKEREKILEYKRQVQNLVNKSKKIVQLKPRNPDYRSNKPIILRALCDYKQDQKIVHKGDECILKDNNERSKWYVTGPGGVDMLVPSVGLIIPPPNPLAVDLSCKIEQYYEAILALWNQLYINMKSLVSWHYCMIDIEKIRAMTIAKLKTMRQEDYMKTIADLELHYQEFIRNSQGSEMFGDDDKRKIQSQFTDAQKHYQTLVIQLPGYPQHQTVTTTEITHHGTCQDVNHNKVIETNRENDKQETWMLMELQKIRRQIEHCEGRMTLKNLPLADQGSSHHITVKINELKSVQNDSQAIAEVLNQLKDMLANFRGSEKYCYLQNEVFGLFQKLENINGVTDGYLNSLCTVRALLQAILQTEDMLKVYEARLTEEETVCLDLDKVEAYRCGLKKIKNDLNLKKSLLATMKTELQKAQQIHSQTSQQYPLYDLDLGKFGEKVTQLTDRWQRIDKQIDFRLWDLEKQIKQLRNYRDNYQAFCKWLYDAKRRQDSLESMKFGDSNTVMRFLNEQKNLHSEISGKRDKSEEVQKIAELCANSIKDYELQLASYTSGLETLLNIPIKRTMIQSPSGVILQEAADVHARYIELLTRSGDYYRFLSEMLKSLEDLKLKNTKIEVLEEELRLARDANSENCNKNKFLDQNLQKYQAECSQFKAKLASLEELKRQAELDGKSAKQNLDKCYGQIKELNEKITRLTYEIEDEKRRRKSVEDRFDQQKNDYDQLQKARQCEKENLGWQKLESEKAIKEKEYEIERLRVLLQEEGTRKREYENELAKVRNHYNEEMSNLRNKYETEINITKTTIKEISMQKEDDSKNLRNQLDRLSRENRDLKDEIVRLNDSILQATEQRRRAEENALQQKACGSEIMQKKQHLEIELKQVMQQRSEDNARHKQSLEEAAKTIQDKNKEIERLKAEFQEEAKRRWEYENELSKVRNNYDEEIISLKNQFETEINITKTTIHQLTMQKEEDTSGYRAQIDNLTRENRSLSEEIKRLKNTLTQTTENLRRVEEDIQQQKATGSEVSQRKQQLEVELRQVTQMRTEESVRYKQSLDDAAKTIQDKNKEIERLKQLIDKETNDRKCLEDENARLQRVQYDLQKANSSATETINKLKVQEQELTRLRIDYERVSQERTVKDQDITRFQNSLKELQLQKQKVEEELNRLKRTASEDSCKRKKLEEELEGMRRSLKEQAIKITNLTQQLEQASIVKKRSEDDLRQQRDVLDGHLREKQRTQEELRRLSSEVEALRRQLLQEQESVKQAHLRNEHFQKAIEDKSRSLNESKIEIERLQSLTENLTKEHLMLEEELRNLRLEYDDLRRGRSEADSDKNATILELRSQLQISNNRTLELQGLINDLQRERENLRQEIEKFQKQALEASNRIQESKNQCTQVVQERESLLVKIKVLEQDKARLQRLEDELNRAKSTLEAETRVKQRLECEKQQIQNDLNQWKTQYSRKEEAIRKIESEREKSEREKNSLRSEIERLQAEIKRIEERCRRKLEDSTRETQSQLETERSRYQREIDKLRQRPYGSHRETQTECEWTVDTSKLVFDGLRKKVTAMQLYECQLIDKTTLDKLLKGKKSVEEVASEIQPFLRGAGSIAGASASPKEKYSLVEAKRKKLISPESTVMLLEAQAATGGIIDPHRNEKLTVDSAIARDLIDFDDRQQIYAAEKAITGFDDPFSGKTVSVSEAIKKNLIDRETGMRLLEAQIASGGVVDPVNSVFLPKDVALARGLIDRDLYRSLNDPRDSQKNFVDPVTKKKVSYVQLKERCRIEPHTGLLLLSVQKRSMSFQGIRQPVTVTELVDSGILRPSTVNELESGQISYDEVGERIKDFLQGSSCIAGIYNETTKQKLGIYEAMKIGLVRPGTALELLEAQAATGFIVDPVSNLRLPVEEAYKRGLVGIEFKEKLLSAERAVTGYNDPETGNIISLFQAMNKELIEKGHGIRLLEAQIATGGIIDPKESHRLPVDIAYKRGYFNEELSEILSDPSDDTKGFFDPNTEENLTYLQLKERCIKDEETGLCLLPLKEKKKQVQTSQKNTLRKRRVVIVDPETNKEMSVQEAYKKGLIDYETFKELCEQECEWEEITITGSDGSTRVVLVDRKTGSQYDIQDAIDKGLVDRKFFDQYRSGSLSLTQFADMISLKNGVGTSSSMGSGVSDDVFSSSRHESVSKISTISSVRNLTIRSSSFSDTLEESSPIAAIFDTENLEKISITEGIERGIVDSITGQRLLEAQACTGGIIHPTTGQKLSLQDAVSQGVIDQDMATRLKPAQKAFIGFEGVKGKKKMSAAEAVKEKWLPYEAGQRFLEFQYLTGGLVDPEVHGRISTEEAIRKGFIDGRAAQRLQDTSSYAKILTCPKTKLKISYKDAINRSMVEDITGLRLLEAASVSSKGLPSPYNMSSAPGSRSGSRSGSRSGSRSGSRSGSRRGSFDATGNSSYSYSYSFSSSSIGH

For this test, the target named is T1, PP2A regulatory subunit B55α (human (endogenous in SCC9, NHEK and human skin)) (UniProt P63151).
T1 sequence: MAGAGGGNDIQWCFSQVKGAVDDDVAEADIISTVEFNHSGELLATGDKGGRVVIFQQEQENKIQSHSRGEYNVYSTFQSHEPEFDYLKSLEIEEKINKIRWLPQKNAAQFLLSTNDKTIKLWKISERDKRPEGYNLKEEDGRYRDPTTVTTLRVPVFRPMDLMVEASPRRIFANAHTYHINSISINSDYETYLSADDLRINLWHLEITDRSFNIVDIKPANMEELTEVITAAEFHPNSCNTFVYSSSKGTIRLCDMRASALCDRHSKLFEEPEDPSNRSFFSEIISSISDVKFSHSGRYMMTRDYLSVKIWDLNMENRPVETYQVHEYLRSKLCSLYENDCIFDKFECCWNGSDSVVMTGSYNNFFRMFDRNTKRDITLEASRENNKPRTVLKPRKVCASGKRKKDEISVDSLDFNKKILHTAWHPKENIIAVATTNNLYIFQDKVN
Description: co-IP; endogenous B55α precipitated with anti-B55α antibody conjugated to agarose from SCC9 and NHEK lysates (NP40 buffer), overnight at 4 °C; blotted for DP or Dsg3.

Results are given in words; binding and its absence hold for the method and conditions named. In cells and extracts the contact can be indirect. Some entries that bind do so weakly or less than the wild type.

Take “desmoplakin (from UniProt P15924 1-2871)”: the binding entry is reported as “binds”.
